Reference: US20120088818
For part of these data: No signal at the amounts used counts as a negative.

Amino acid sequences for entries named in this document (tags omitted). Residues count along the entry.
UniProt P19490, 19-907: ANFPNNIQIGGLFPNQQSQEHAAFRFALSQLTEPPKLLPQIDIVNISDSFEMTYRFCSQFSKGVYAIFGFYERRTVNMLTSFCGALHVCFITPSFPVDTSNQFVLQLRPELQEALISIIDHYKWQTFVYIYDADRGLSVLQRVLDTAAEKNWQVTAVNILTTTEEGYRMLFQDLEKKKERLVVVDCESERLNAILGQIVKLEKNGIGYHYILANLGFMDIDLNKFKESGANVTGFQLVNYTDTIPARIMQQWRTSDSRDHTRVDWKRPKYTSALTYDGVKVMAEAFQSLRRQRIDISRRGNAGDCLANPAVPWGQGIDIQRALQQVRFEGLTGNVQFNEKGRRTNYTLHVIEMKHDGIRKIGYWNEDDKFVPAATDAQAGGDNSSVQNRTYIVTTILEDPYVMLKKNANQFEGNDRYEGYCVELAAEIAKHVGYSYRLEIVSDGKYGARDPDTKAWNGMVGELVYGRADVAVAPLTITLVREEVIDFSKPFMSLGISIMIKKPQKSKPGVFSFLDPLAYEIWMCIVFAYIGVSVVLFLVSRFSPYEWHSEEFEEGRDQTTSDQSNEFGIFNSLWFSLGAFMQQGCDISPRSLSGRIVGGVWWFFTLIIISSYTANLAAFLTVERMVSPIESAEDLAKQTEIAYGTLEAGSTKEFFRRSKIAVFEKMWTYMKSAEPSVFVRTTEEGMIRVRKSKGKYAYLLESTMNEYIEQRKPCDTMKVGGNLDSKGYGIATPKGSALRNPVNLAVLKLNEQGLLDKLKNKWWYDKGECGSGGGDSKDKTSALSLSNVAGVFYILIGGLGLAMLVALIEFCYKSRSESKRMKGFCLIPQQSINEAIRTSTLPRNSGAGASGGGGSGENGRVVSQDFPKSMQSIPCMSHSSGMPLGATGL
UniProt P42260, 32-908: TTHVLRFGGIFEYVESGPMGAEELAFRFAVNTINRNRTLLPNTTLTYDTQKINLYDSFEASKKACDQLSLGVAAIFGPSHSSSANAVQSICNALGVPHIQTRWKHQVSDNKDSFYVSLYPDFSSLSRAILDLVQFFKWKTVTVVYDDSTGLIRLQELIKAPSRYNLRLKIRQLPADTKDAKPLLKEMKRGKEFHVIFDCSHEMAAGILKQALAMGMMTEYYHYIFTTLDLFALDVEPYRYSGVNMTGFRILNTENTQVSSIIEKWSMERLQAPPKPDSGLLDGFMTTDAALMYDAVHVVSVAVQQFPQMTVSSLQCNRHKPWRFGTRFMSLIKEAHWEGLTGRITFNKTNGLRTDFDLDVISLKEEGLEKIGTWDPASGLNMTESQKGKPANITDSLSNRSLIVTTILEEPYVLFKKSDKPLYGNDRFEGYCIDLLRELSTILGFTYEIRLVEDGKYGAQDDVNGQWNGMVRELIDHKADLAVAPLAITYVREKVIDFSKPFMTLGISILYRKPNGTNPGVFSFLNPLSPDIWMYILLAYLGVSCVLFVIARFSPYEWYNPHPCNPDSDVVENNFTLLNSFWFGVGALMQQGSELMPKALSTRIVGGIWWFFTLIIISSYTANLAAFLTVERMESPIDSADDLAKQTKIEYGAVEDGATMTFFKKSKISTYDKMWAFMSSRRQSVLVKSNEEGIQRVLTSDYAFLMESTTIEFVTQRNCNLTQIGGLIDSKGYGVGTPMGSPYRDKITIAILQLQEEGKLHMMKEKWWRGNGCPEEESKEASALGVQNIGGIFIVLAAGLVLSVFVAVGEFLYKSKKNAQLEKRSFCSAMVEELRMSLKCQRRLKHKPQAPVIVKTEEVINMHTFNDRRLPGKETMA
UniProt P19492, 23-888: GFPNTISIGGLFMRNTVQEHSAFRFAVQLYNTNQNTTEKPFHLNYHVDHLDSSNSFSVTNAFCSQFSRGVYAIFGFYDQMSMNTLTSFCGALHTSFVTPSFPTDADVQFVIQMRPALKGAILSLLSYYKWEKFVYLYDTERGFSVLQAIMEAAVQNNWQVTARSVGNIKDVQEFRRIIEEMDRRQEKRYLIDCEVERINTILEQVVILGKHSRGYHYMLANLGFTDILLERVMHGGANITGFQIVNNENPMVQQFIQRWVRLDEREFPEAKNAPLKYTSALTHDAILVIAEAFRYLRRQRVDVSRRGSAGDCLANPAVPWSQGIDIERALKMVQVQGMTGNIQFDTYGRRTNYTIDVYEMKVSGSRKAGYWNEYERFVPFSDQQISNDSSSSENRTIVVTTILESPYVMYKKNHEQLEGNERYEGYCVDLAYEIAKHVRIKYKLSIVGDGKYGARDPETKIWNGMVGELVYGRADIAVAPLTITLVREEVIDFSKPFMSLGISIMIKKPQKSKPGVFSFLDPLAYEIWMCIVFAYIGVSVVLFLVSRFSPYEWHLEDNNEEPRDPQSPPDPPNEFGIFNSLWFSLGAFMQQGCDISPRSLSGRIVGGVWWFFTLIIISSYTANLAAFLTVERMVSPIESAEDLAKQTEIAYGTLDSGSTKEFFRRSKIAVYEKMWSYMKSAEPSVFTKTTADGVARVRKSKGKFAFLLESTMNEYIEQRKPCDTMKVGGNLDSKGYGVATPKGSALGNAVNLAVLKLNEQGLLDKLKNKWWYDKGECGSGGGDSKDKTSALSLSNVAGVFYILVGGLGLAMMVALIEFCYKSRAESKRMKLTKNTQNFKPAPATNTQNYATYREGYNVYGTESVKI
UniProt P22756, 31-949: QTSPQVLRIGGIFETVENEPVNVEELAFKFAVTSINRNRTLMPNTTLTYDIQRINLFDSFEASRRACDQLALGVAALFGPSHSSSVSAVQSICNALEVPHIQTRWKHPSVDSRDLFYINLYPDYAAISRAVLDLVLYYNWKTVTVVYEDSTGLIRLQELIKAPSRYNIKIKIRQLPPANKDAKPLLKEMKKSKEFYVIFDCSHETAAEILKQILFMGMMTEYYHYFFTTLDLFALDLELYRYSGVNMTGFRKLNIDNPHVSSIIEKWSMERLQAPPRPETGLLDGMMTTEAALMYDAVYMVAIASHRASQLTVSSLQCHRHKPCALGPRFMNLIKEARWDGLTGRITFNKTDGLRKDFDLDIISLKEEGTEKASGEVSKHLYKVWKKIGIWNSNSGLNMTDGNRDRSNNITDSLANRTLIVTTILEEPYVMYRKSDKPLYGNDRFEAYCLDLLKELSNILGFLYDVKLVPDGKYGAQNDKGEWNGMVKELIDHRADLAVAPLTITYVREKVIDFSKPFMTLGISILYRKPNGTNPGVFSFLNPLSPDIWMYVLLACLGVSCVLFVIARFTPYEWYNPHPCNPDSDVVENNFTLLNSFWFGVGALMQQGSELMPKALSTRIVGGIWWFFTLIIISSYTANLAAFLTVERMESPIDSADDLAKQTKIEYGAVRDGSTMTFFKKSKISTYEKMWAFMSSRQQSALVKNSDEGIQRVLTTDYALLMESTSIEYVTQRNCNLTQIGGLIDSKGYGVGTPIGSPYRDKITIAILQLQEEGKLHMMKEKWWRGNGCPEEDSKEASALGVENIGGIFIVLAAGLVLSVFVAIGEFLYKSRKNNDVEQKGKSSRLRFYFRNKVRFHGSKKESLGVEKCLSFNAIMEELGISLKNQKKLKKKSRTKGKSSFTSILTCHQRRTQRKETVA
UniProt P19493, 21-902: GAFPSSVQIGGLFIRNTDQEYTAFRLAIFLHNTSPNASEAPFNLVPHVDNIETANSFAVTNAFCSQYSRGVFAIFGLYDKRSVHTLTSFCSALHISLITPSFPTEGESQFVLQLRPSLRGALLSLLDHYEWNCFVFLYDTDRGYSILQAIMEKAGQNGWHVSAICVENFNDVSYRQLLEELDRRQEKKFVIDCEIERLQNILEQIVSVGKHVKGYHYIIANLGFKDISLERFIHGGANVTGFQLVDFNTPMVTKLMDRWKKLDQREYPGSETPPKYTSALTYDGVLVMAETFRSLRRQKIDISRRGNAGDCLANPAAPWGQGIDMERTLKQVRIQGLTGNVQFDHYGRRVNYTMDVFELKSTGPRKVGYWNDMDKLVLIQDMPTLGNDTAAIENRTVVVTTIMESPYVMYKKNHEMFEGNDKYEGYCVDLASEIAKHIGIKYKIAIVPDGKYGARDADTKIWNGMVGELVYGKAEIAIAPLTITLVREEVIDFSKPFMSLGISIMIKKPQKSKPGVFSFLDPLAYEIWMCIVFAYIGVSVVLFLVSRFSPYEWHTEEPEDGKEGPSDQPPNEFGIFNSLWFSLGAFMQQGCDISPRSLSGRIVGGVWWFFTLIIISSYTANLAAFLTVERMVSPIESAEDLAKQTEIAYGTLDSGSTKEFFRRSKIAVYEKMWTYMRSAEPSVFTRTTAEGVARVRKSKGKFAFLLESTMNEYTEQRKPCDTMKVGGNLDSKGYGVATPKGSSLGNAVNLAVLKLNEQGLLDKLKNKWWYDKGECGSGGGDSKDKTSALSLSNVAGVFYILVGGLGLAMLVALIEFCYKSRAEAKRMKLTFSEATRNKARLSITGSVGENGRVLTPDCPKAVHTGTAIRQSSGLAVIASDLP

Columns and labels:
Assay in all cases: activity in cells
[1] = target: GluA1 AMPA receptor (Rattus norvegicus) (UniProt P19490); settings: whole-cell current, open-channel conformation inhibited; protein on the cell surface; variant of AG1407 (full length, 100 nt); dose not given here
[2] = target: GluK2 kainate receptor (Rattus norvegicus) (UniProt P42260); settings: no inhibition of whole-cell current; protein on the cell surface; variant of AG1407 (full length, 100 nt); dose not given here
[3] = target: GluA3 AMPA receptor (Rattus norvegicus) (UniProt P19492); settings: whole-cell current, open-channel conformation inhibited; protein on the cell surface; variant of AG1407 (full length, 100 nt); dose not given here
GluK1 kainate receptor = GluK1 kainate receptor (UniProt P22756); settings: no inhibition of whole-cell current; protein on the cell surface; variant of AG1407 (full length, 100 nt); dose not given here
GluA4 AMPA receptor = GluA4 AMPA receptor (UniProt P19493); settings: whole-cell current, open-channel conformation inhibited; protein on the cell surface; variant of AG1407 (full length, 100 nt); dose not given here
[4] = system: GluN1/GluN2A NMDA receptor; settings: no inhibition of whole-cell current; 2 uM glycine; protein on the cell surface; variant of AG1407 (full length, 100 nt)

**Q.** How did the “functional effect of the aptamer” value [1] turn out when “GGGAGAUUGUGAAGCGUAGGCUCGAGUUUGUCCCGCGAGCCAAAGAUUCCAGACCC [AG56]” was run?
**A.** active

**Q.** And the “functional effect of the aptamer” value [2]?
**A.** not active

**Q.** What about the “functional effect of the aptamer” value [3] of the same sequence?
**A.** active

**Q.** And the “functional effect of the aptamer” value (GluK1 kainate receptor)?
**A.** not active

**Q.** What about the “functional effect of the aptamer” value (GluA4 AMPA receptor) of the same sequence?
**A.** active

**Q.** What about the “functional effect of the aptamer” value [4] of the same sequence?
**A.** not active
